Assay [1] concerns the target T1, PILS6-GFP (PIN-LIKES 6, GFP-tagged) (A. thaliana) (UniProt Q9LZN2).
T1 sequence: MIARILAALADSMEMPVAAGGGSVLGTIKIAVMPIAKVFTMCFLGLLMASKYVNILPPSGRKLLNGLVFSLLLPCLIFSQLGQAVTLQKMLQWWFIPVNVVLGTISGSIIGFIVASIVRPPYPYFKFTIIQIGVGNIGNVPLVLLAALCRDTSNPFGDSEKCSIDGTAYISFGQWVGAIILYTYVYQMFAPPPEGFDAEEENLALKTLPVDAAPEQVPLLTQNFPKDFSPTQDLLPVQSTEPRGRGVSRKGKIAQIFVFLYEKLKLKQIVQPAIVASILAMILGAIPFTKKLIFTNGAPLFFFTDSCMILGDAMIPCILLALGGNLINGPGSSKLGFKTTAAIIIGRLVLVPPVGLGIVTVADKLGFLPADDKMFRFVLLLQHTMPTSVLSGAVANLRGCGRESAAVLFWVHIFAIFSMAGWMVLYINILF
Description: co-IP; stable A. thaliana transgenics expressing PILS6-GFP; α-GFP IP, immunoblot with GFP and HRD1 antibodies. (Immunoblotting shows a protein as a band on a membrane.)

The next assay has as its target T2, PILS3-GFP (A. thaliana) (UniProt Q9C9K5).
T2 sequence: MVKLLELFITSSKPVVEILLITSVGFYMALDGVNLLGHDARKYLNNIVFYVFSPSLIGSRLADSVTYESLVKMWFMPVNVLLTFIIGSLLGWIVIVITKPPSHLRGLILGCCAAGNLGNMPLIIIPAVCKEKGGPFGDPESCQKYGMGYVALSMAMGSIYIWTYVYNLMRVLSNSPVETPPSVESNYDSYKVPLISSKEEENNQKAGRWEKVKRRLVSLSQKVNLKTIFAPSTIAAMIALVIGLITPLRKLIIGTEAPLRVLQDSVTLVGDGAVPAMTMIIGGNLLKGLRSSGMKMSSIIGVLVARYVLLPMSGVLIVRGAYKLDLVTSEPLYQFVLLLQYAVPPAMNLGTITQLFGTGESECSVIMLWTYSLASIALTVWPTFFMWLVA
Nature of the assay: co-IP; PILS3-GFP coexpressed with mScarlet-tagged ERAD components transiently in N. benthamiana; α-RFP or α-GFP IPs, immunoblot with RFP or GFP antibodies.

Data on three substances can be found in PMC12448072.

No constants are given. Whether binding was seen depends on the method and setting. In cells and extracts the contact can be indirect. Binding calls can cover weak binding; strength is not graded here. Tags and fused reporters may be left off the sequences shown.

With “HRD1 (endogenous HRD1A/B, as recognised by the HRD1 antibody) (A. thaliana (endogenous in A. thaliana))”, the binding entry in assay [1] was “binds”.

Take PAWH1-mScarlet (A. thaliana): the binding entry in the assay with PILS3-GFP (A. thaliana) is reported as “binds”.

As to PAWH2-mScarlet (A. thaliana), the binding result with PILS3-GFP (A. thaliana) was “binds”.
